Where two headings read alike, the source gives them in different places. No constants are given. Whether binding was seen depends on the method and setting. In cells and extracts the contact can be indirect. Here binding means that the protein was enriched with, or labelled near, the bait; the list need not be complete. Tags and fused reporters may be left off the sequences shown.
T1: TRIM29-Myc (human) (UniProt Q14134)
T1 sequence: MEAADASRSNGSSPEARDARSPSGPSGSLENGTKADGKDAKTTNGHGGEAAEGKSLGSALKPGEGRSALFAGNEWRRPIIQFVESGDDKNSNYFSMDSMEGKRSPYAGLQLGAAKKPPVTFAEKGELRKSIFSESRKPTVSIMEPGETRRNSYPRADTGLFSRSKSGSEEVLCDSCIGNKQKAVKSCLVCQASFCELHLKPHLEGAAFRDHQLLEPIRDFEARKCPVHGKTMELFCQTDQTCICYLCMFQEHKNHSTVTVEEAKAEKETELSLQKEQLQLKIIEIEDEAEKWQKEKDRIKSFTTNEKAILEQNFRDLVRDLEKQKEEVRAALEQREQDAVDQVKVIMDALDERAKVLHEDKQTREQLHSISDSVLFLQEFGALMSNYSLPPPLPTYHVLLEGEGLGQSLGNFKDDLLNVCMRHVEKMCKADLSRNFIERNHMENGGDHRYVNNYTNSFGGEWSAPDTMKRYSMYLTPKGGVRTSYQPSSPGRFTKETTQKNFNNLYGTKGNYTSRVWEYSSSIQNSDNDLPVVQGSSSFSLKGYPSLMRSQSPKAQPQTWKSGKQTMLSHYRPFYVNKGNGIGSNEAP

Chains of the proteins cited; added tags and fusions are not shown.
UniProt P19474: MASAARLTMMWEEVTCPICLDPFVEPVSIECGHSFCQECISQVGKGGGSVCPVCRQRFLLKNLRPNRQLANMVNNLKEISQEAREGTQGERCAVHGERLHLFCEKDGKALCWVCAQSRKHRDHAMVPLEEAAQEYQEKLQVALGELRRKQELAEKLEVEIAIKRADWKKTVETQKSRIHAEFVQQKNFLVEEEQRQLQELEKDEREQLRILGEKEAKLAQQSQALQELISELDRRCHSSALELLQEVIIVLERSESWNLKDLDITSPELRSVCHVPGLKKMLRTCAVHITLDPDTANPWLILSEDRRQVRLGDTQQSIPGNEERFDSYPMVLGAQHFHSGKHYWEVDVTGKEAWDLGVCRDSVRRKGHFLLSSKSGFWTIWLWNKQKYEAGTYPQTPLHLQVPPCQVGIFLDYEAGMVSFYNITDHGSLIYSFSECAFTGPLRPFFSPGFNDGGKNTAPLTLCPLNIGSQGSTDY

T2: USP18-Flag (human) (UniProt Q9UMW8)
T2 sequence: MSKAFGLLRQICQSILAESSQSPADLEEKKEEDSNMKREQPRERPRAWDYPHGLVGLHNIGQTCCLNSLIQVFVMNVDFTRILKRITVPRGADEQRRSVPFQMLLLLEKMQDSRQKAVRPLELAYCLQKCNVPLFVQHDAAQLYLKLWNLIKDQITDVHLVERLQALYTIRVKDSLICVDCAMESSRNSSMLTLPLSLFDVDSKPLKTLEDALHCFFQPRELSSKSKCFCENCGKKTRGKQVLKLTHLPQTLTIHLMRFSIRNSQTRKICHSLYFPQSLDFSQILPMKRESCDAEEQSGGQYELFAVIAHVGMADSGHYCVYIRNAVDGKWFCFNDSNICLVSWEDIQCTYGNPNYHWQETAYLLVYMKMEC

B1: TRIM29 (endogenous) (protein, UniProt Q14134 1-588)
chain: T1 sequence
B2: HERC5 (endogenous) (enzyme, UniProt Q9UII4 1-1024)
chain: MERRSRRKSRRNGRSTAGKAAATQPAKSPGAQLWLFPSAAGLHRALLRRVEVTRQLCCSPGRLAVLERGGAGVQVHQLLAGSGGARTPKCIKLGKNMKIHSVDQGAEHMLILSSDGKPFEYDNYSMKHLRFESILQEKKIIQITCGDYHSLALSKGGELFAWGQNLHGQLGVGRKFPSTTTPQIVEHLAGVPLAQISAGEAHSMALSMSGNIYSWGKNECGQLGLGHTESKDDPSLIEGLDNQKVEFVACGGSHSALLTQDGLLFTFGAGKHGQLGHNSTQNELRPCLVAELVGYRVTQIACGRWHTLAYVSDLGKVFSFGSGKDGQLGNGGTRDQLMPLPVKVSSSEELKLESHTSEKELIMIAGGNQSILLWIKKENSYVNLKRTIPTLNEGTVKRWIADVETKRWQSTKREIQEIFSSPACLTGSFLRKRRTTEMMPVYLDLNKARNIFKELTQKDWITNMITTCLKDNLLKRLPFHSPPQEALEIFFLLPECPMMHISNNWESLVVPFAKVVCKMSDQSSLVLEEYWATLQESTFSKLVQMFKTAVICQLDYWDESAEENGNVQALLEMLKKLHRVNQVKCQLPESIFQVDELLHRLNFFVEVCRRYLWKMTVDASENVQCCVIFSHFPFIFNNLSKIKLLHTDTLLKIESKKHKAYLRSAAIEEERESEFALRPTFDLTVRRNHLIEDVLNQLSQFENEDLRKELWVSFSGEIGYDLGGVKKEFFYCLFAEMIQPEYGMFMYPEGASCMWFPVKPKFEKKRYFFFGVLCGLSLFNCNVANLPFPLALFKKLLDQMPSLEDLKELSPDLGKNLQTLLDDEGDNFEEVFYIHFNVHWDRNDTNLIPNGSSITVNQTNKRDYVSKYINYIFNDSVKAVYEEFRRGFYKMCDEDIIKLFHPEELKDVIVGNTDYDWKTFEKNARYEPGYNSSHPTIVMFWKAFHKLTLEEKKKFLVFLTGTDRLQMKDLNNMKITFCCPESWNERDPIRALTCFSVLFLPKYSTMETVEEALQEAINNNRGFG

Experiments:
Test in all cases: affinity purification with mass spectrometry; immunoprecipitates of USP18-Flag or TRIM29-Myc from transfected SUNE1 cells, SDS-PAGE, silver staining, mass spectrometry
TRIM29-Myc (human) [1] = target: T1, TRIM29-Myc (human)
USP18-Flag (human) [2] = target: T2, USP18-Flag (human)
USP18-Flag (human) [3] = target: T2, USP18-Flag (human); remark: listed apart in the source
TRIM29-Myc (human) [4] = target: T1, TRIM29-Myc (human); remark: listed apart in the source

Row | Molecule | binding (TRIM29-Myc (human) [1]) | binding (USP18-Flag (human) [2]) | binding (USP18-Flag (human) [3]) | binding (TRIM29-Myc (human) [4])
1 | TRIM21 (endogenous) (from UniProt P19474 1-475) (enzyme) | binds | binds | – | –
2 | B1 | – | – | binds | –
3 | B2 | – | – | binds | binds

Source: article PMC13156314
